Assay results taken from EPA's CvTdb concentration-time database.
The source gives many values for each of these; only a part stands here.

Columns and labels:
Assay in all cases: concentration in plasma after dosing
Mouse [1] = settings: 5 min; dosed: 2-Hydroxy-4-methoxybenzophenone; 250 mg/kg; oral; Male; B6C3F1
Mouse [2] = settings: 0.5 h; dosed: 2-Hydroxy-4-methoxybenzophenone; 50 mg/kg; iv; Male; B6C3F1
Mouse [3] = settings: 0.5 h; dosed: 2-Hydroxy-4-methoxybenzophenone; 50 mg/kg; iv; Female; B6C3F1
Mouse [4] = settings: 5 h; dosed: 2-Hydroxy-4-methoxybenzophenone; 250 mg/kg; oral; Female; B6C3F1
Mouse [5] = settings: 1.5 h; dosed: 2-Hydroxy-4-methoxybenzophenone; 250 mg/kg; oral; Male; B6C3F1
Mouse [6] = settings: 12 h; dosed: 2-Hydroxy-4-methoxybenzophenone; 50 mg/kg; iv; Male; B6C3F1
Mouse [7] = settings: 16 h; dosed: 2-Hydroxy-4-methoxybenzophenone; 50 mg/kg; iv; Male; B6C3F1
Mouse [8] = settings: 0.5 h; dosed: 2-Hydroxy-4-methoxybenzophenone; 500 mg/kg; oral; Male; B6C3F1
Mouse [9] = settings: 5 min; dosed: 2-Hydroxy-4-methoxybenzophenone; 500 mg/kg; oral; Male; B6C3F1
Mouse [10] = settings: 2.5 min; dosed: 2-Hydroxy-4-methoxybenzophenone; 500 mg/kg; oral; Male; B6C3F1
Rat [11] = settings: dosed: 2-Hydroxy-4-methoxybenzophenone, 250 mg/kg, oral, Female, F344
Rat [12] = settings: dosed: 2-Hydroxy-4-methoxybenzophenone, 8 mg/kg, iv, Male, F344
Mouse [13] = settings: 10 h; dosed: 2-Hydroxy-4-methoxybenzophenone; 500 mg/kg; oral; Male; B6C3F1
Mouse [14] = settings: 6 h; dosed: 2-Hydroxy-4-methoxybenzophenone; 500 mg/kg; oral; Female; B6C3F1
Rat [15] = settings: 16 h; dosed: 2-Hydroxy-4-methoxybenzophenone; 500 mg/kg; oral; Female; F344
Rat [16] = settings: dosed: 2-Hydroxy-4-methoxybenzophenone, 250 mg/kg, oral, Male, F344
Mouse [17] = settings: 6 h; dosed: 2-Hydroxy-4-methoxybenzophenone; 250 mg/kg; oral; Male; B6C3F1
Mouse [18] = settings: 5 min; dosed: 2-Hydroxy-4-methoxybenzophenone; 50 mg/kg; iv; Female; B6C3F1
Rat [19] = settings: dosed: 2-Hydroxy-4-methoxybenzophenone, 250 mg/kg, oral, Female, F344; remark: listed apart in the source
Mouse [20] = settings: 12 h; dosed: 2-Hydroxy-4-methoxybenzophenone; 50 mg/kg; iv; Female; B6C3F1
Rat [21] = settings: 2.5 min; dosed: 2-Hydroxy-4-methoxybenzophenone; 100 mg/kg; oral; Female; F344
Mouse [22] = settings: 0.5 h; dosed: 2-Hydroxy-4-methoxybenzophenone; 500 mg/kg; oral; Male; B6C3F1; remark: listed apart in the source
Mouse [23] = settings: 1 h; dosed: 2-Hydroxy-4-methoxybenzophenone; 500 mg/kg; oral; Female; B6C3F1
Mouse [24] = settings: 2.5 min; dosed: 2-Hydroxy-4-methoxybenzophenone; 500 mg/kg; oral; Female; B6C3F1
Rat [25] = settings: dosed: Perfluorohexanoic Acid, 160 mg/kg, oral, Female, Harlan Sprague Dawley
Rat [26] = settings: dosed: Perfluorohexanoic Acid, 160 mg/kg, oral, Female, Harlan Sprague Dawley; remark: listed apart in the source
Rat [27] = settings: dosed: Perfluorohexanoic Acid, 160 mg/kg, oral, Male, Harlan Sprague Dawley
Rat [28] = settings: dosed: Perfluorohexanoic Acid, 40 mg/kg, oral, Male, Harlan Sprague Dawley
Rat [29] = settings: dosed: Perfluorohexanoic Acid, 40 mg/kg, Female, Harlan Sprague Dawley
Rat [30] = settings: dosed: Perfluorohexanoic Acid, 40 mg/kg, Male, F344
Rat [31] = settings: 3 h; dosed: Perfluorohexanoic Acid; 80 mg/kg; oral; Female; Harlan Sprague Dawley

O=C(c1ccccc1)c1ccc(O)cc1O [2,4-Dihydroxybenzophenone]
Settings	concentration in plasma [µg/mL]
Mouse [1]	0.343
Mouse [2]	0.615
Mouse [3]	0.286
Mouse [4]	0.0668
Mouse [5]	0.382
Mouse [6]	0.0755
Mouse [7]	0.177
Mouse [8]	3.13
Mouse [9]	0.187
Mouse [10]	0.198

COc1ccc(C(=O)c2ccccc2)c(O)c1 [2-Hydroxy-4-methoxybenzophenone]
concentration in plasma [µg/mL]
Settings	Rat [11]	Rat [12]	Rat [16]	Rat [19]
1 h	0.504	0.261	–	0.17
1.5 h	–	–	0.508	–
6 h	0.0302	0.0207	–	0.0163
8 h	–	–	0.026	–

Settings	concentration in plasma
Mouse [13]	0.0302 µg/mL
Mouse [14]	0.0596 µg/mL
Mouse [17]	0.0474 µg/mL
Mouse [18]	17.9 µg/mL
Mouse [20]	0.0156 µg/mL
Mouse [22]	0.442 µg/mL
Mouse [23]	0.12 µg/mL
Mouse [24]	0.0701 µg/mL
Rat [15]	0.0363 µg/mL
Rat [21]	9.55 ng/mL

O=C(O)C(F)(F)C(F)(F)C(F)(F)C(F)(F)C(F)(F)F [Perfluorohexanoic Acid]
Settings	concentration in plasma
Rat [25], 1 h	158 µg/mL
Rat [25], 24 h	0.0911 µg/mL
Rat [26], 0.75 h	135 µg/mL
Rat [26], 12 h	0.161 µg/mL
Rat [27], 0.25 h	142 µg/mL
Rat [27], 6 h	19.8 µg/mL
Rat [28], 3 h	15300 ng/mL
Rat [28], 5 min	22100 ng/mL
Rat [29], 0.75 h	29200 ng/mL
Rat [29], 24 h	28.6 ng/mL
Rat [30], 0.5 h	115 µg/mL
Rat [30], 12 h	0.352 µg/mL

Settings	concentration in plasma [ng/mL]
Rat [31]	45300
